Assay results taken from the supplement of paper PMC3334620.
In all, about 33,000 sequences were measured (“E-score (-0.5 to 0.5)”: median about -0.016, highest 2% from about 0.3 on). Some of the results follow.

The sequences below were run against T1, Yer184c (UniProt P39961) (assay: PBM E-score (8-mer binding enrichment) (E-score (-0.5 to 0.5)); higher = stronger / more preferred TF binding). Conditions: protein concentration: 100 nM; construct: GST-full length.
T1 sequence: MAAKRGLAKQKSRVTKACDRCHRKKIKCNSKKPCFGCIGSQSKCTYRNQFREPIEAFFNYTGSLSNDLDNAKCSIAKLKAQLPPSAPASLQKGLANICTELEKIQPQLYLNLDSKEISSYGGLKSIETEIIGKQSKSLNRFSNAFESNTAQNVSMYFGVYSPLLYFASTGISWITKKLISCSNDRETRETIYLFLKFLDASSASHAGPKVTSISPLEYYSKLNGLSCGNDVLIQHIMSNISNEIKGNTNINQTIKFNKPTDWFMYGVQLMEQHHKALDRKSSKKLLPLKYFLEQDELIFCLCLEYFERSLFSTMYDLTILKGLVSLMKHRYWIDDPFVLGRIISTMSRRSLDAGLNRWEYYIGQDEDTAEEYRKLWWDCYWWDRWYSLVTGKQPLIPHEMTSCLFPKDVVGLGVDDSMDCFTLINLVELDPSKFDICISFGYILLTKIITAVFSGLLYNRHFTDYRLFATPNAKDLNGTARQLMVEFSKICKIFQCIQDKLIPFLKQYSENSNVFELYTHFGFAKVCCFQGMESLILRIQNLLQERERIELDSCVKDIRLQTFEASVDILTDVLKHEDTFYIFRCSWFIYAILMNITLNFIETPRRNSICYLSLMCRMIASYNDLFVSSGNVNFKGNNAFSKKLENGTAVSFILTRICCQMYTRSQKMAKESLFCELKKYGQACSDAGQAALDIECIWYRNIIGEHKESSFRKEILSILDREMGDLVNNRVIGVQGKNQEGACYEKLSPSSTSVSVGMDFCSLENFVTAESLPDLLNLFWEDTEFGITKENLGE
Protocol: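 Universal 'all 10-mer' protein binding microarrays (Agilent AMADID 015681) probed with GST-tagged S. cerevisiae TFs (full-length or DBD) made by in vitro transcription/translation (PURExpress), about 100-200 nM. Bound TF was detected with fluorescent anti-GST. Each ungapped 8-mer (which stands for itself and its reverse complement) is scored by the PBM enrichment score (E-score), a modified Wilcoxon-Mann-Whitney statistic from -0.5 to +0.5, computed with the Universal PBM Analysis Suite. Scale: above 0.35 generally sequence-specific binding.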

First: AGACGACG
Second: ATCCAGTA
The “PBM E-score” value of the first is lower: -0.185 for the first, -0.135 for the second.

First: CAGAAATA
Second: AACGGCAC
The “PBM E-score” value of the first is lower: -0.0284 for the first, 0.0856 for the second.

Compared with CTCCGAAG, ATGCCCTC is lower in “PBM E-score” value: 0.303 for the first, -0.0705 for the second.

Compared with GAGCTCGA, CTACAGAA is lower in “PBM E-score” value: 0.136 for the first, 0.103 for the second.

Compared with ATCATCGC, CCTTTGTC is higher in “PBM E-score” value: -0.154 for the first, 0.0403 for the second.

Going from CGGCCGGA to TCTAACCA, the “PBM E-score” value falls from 0.402 to 0.0158.

First: CCTACAGC
Second: AAACATTA
The “PBM E-score” value of the first is lower: -0.231 for the first, 0.093 for the second.

Going from CCGCTTAG to CCCACAGG, the “PBM E-score” value falls from -0.216 to -0.376.

Going from AAGTCAAA to TGAGGACA, the “PBM E-score” value falls from 0.117 to -0.105.

First: AAGCACGG
Second: GCTCGCAC
The “PBM E-score” value of the first is lower: -0.0621 for the first, 0.0955 for the second.

First: ACAGGCTA
Second: ACCGAGAT
The “PBM E-score” value of the first is lower: -0.164 for the first, 0.202 for the second.

Compared with TGATTAAA, ATTTTAAG is lower in “PBM E-score” value: 0.252 for the first, 0.0152 for the second.

Going from AAGGGCGT to AGGTAACG, the “PBM E-score” value rises from -0.169 to 0.00421.

Going from CATTTTCG to CACTCTCG, the “PBM E-score” value falls from 0.094 to -0.126.

Compared with CGCCCAAG, TCGAATAA is higher in “PBM E-score” value: -0.249 for the first, -0.00128 for the second.

Compared with CCAGACAC, CTCGGTCC is higher in “PBM E-score” value: -0.135 for the first, 0.181 for the second.

First: CGGTTACA
Second: CATTACCC
The “PBM E-score” value of the first is higher: 0.242 for the first, -0.111 for the second.

Going from CGTGATAG to CATCGCCC, the “PBM E-score” value falls from -0.0395 to -0.167.

First: CTAAACTA
Second: GCCCTGCA
The “PBM E-score” value of the first is higher: -0.0564 for the first, -0.195 for the second.

Compared with CGGCTGTA, CTCCTGAA is lower in “PBM E-score” value: 0.147 for the first, 0.0396 for the second.

First: AAGATACC
Second: AACCGAAG
The “PBM E-score” value of the first is lower: 0.187 for the first, 0.259 for the second.

First: AGACGTAA
Second: GGATAGAA
The “PBM E-score” value of the first is lower: 0.0391 for the first, 0.197 for the second.

Compared with CCTGCGAG, GCTAGACA is higher in “PBM E-score” value: 0.00158 for the first, 0.113 for the second.

Compared with AAGGGCGA, AGGAGCTG is lower in “PBM E-score” value: -0.211 for the first, -0.235 for the second.

Going from TCCAGGGA to ACAGGGCG, the “PBM E-score” value rises from -0.242 to -0.0949.

First: CACACTCC
Second: ATCCCGTG
The “PBM E-score” value of the first is lower: -0.282 for the first, 0.155 for the second.

Going from AACATATC to CGGGAGAC, the “PBM E-score” value falls from 0.0913 to 0.0664.

Compared with GCTCGGGA, GGCATGGA is lower in “PBM E-score” value: 0.156 for the first, 0.0649 for the second.

First: ATCCATTG
Second: AGCGCCAG
The “PBM E-score” value of the first is lower: 0.0741 for the first, 0.114 for the second.

First: CTGAATGC
Second: ACTCAGGC
The “PBM E-score” value of the first is lower: -0.13 for the first, -0.0239 for the second.

Going from CCTGTCAA to AGCACCCT, the “PBM E-score” value falls from -0.11 to -0.24.

First: GTTATGTA
Second: CAGGATAG
The “PBM E-score” value of the first is lower: -0.00775 for the first, 0.0949 for the second.

Going from AGGTGCCC to ATGAACAT, the “PBM E-score” value rises from -0.138 to 0.145.

Going from CAAACTAG to AGAAAGAG, the “PBM E-score” value falls from -0.0624 to -0.145.

Compared with ATCTTGGC, GAACAGTC is higher in “PBM E-score” value: -0.141 for the first, -0.0884 for the second.

First: CCCGTTTC
Second: ATCTTTCC
The “PBM E-score” value of the first is lower: 0.00236 for the first, 0.0322 for the second.

First: ATGTGTGA
Second: GATACGTA
The “PBM E-score” value of the first is lower: -0.158 for the first, 0.0184 for the second.

Going from AAGTAATC to CCATGCCA, the “PBM E-score” value falls from 0.0867 to -0.184.

Going from AGTGAAAG to ATTCTCGC, the “PBM E-score” value falls from 0.115 to -0.192.

Compared with CAAGGTCA, CTTTTCTA is higher in “PBM E-score” value: -0.186 for the first, -0.172 for the second.

Going from AGGTGGAT to ACGATGAT, the “PBM E-score” value falls from -0.105 to -0.14.

Going from ATCAGTTA to TAGACTGA, the “PBM E-score” value falls from 0.215 to -0.139.

Compared with CTTCTAAA, CGATCCAG is lower in “PBM E-score” value: 0.118 for the first, -0.177 for the second.

Compared with GTTCGGCA, ATAAAAAA is lower in “PBM E-score” value: 0.368 for the first, 0.289 for the second.

First: CGTGGCGA
Second: TCCGCACA
The “PBM E-score” value of the first is lower: -0.0176 for the first, 0.0986 for the second.

Compared with GGGTACTA, AACGTTAG is higher in “PBM E-score” value: -0.0391 for the first, 0.0423 for the second.

First: CACTCCTA
Second: CTAAATTC
The “PBM E-score” value of the first is higher: 0.0638 for the first, -0.0259 for the second.

First: CGGTTCAC
Second: GACTAAGA
The “PBM E-score” value of the first is lower: -0.0988 for the first, 0.13 for the second.

Going from AAGCGGAT to AAGACGTA, the “PBM E-score” value falls from 0.0624 to -0.024.

Going from ATGAGGTA to ACGGCGTA, the “PBM E-score” value rises from -0.0246 to 0.0111.

Going from GTGTTCTA to ATTTGAGA, the “PBM E-score” value falls from 0.015 to -0.0548.

Going from AAAAGTAT to AAGGAACC, the “PBM E-score” value rises from 0.135 to 0.22.

First: AATCAACC
Second: AGAAGTGC
The “PBM E-score” value of the first is lower: -0.163 for the first, -0.133 for the second.

Compared with AGCAAGCT, CTAAGAGC is higher in “PBM E-score” value: -0.246 for the first, -0.2 for the second.

First: AACCTCGA
Second: ACTCACCA
The “PBM E-score” value of the first is higher: 0.0188 for the first, -0.176 for the second.

First: ACGCTGAG
Second: AAAATACC
The “PBM E-score” value of the first is lower: -0.207 for the first, 0.284 for the second.

Compared with AAGACCCC, CGAATCAC is higher in “PBM E-score” value: -0.192 for the first, 0.0273 for the second.

Going from TAATGGAA to AACCGCGA, the “PBM E-score” value rises from 0.0893 to 0.225.

Compared with AGGGCGAC, GGGATGAC is higher in “PBM E-score” value: -0.183 for the first, -0.181 for the second.

First: CGTCATAG
Second: GAACATAA
The “PBM E-score” value of the first is lower: -0.0696 for the first, 0.0766 for the second.

Going from CCAGCTGG to TCACCGCA, the “PBM E-score” value falls from -0.0667 to -0.0803.

Going from AGGCCCAC to AAGCCGAC, the “PBM E-score” value rises from -0.399 to 0.13.

First: AACTTGGA
Second: CCACCTCC
The “PBM E-score” value of the first is higher: -0.0966 for the first, -0.224 for the second.

First: ACTTCCGA
Second: CGTTCAGC
The “PBM E-score” value of the first is higher: 0.285 for the first, 0.0565 for the second.

Compared with ACCGTCAA, GAATACGC is lower in “PBM E-score” value: 0.109 for the first, 0.0179 for the second.

Going from AGTGGCGA to GCAACATA, the “PBM E-score” value falls from -0.0299 to -0.174.

Compared with CGGAAGCC, GTGTCTGA is lower in “PBM E-score” value: 0.211 for the first, -0.0506 for the second.

Compared with GCGAAGAA, GTGTCCTA is lower in “PBM E-score” value: 0.145 for the first, 0.0761 for the second.

Compared with ATTCCACG, TGACACCA is lower in “PBM E-score” value: -0.0835 for the first, -0.238 for the second.

First: GCCTAAAC
Second: GGCGGCAA
The “PBM E-score” value of the first is lower: -0.00658 for the first, 0.129 for the second.

First: ATGGCCGA
Second: TCGGGTAA
The “PBM E-score” value of the first is higher: 0.192 for the first, 0.0925 for the second.

Compared with CGGCCTGC, AGCGCGTG is lower in “PBM E-score” value: 0.0731 for the first, -0.13 for the second.

Compared with GCGGAGAC, AGTAGTGC is lower in “PBM E-score” value: 0.117 for the first, -0.113 for the second.

Going from AAAAACCA to GGAAATCC, the “PBM E-score” value falls from 0.221 to 0.0674.

First: GACGACGA
Second: GCGATAAC
The “PBM E-score” value of the first is lower: -0.0308 for the first, 0.00351 for the second.

First: CATGTGAG
Second: AGCCCGCT
The “PBM E-score” value of the first is higher: -0.289 for the first, -0.309 for the second.

First: ATACGTCG
Second: CGACCATA
The “PBM E-score” value of the first is higher: -0.0234 for the first, -0.0566 for the second.

Compared with TACAAATA, AAAGACAT is lower in “PBM E-score” value: 0.154 for the first, -0.259 for the second.

First: CATTTGTA
Second: CGGACCAC
The “PBM E-score” value of the first is lower: 0.177 for the first, 0.244 for the second.

Compared with AGGGGCAT, AAAGTTAC is higher in “PBM E-score” value: -0.358 for the first, 0.12 for the second.

Compared with GGTATTAA, AGACTGAG is lower in “PBM E-score” value: 0.122 for the first, 0.0116 for the second.

Going from CGCCTGCA to ACGGACTG, the “PBM E-score” value rises from -0.185 to -0.0943.

Going from CGAACTAA to CCCGCAAA, the “PBM E-score” value rises from 0.164 to 0.172.

Compared with TACCTAGA, AAACAAAA is higher in “PBM E-score” value: -0.108 for the first, 0.028 for the second.

First: ACAAAAAA
Second: AACTAGGG
The “PBM E-score” value of the first is higher: 0.272 for the first, -0.303 for the second.

Compared with CACTGTCA, CTCGCCTA is higher in “PBM E-score” value: -0.0308 for the first, -0.00786 for the second.
